From the supplement of paper PMC10735217
Where a name gives a salt, the structure may show the parent alone. This is one part of the list. Single values are uncertain here, since repeats match poorly.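 In a drug-repurposing library screen, luminescence reads luciferase driven by eight TEAD-binding elements, stably integrated into human kidney-derived cells. Compounds scoring over five robust Z scores above the plate mean are called hits.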

Tested on: HEK293A TEAD-LUC reporter
Assay: TEAD-luciferase reporter activity (YAP activation), robust Z score vs plate; higher = stronger YAP/TEAD activation
Conditions: 24 h

Structure (SMILES) | TEAD-luciferase reporter activity (compound concentration: 200 nM) | TEAD-luciferase reporter activity (compound concentration: 2 uM) | TEAD-luciferase reporter activity (compound concentration: 10 uM)
C[C@]12C=CC(=O)C=C1CC[C@@H]1[C@@H]2[C@@H](O)C[C@@]2(C)[C@H]1CC[C@]2(O)C(=O)CO [Prednisolone] | inactive: -0.000567 | inactive: 3.02 | inactive: 2.41
O=C1c2ccccc2C(=O)c2sc(-c3ccco3)nc21 | inactive: 0.952 | inactive: -1.17 | inactive: -0.8
CS(=O)(=O)c1ccc(C2=C(c3ccccc3)C(=O)OC2)cc1 [rofecoxib] | – | inactive: -0.579 | –
CS(=O)(=O)c1ccc(C2=C(c3ccccc3)C(=O)OC2)cc1 | inactive: -0.321 | – | inactive: -0.401
COC(=O)C1C(=O)C=C(Nc2ccc(Cl)cc2)CC1C (stereo not given) | inactive: -0.468 | inactive: 0.407 | inactive: 1.91
Cc1cc(C(=O)O)ccc1COc1cc2c(cc1N(CC(C)C)S(=O)(=O)c1nccs1)CCC2 | inactive: -1.93 | inactive: -1.13 | inactive: -1.61
IC(I)I | inactive: -1.59 | inactive: -0.717 | inactive: -0.918
CC1=N[C@H](C(=O)O)CCN1 [Ectoine] | inactive: -0.736 | – | inactive: 2.55
CCC1(CC(=O)O)OCCc2c1[nH]c1ccccc21 (stereo not given) | inactive: -1.45 | inactive: -0.91 | inactive: -1.28
O=NN(CCCl)C(=O)NCCSSCCNC(=O)N(CCCl)N=O [ditiomustine] | inactive: -0.192 | inactive: -0.233 | active: 8.79
c1ccc(C(CCNc2ccncc2)c2ccccc2)cc1 [milverine] | inactive: -1.55 | inactive: 0.701 | inactive: 0.891
O=C(OCC(O)CO)c1ccccc1Nc1ccnc2cc(Cl)ccc12 (stereo not given) [glafenine, Sopar] | inactive: -0.87 | – | inactive: -1.56
O=C(OCC(O)CO)c1ccccc1Nc1ccnc2cc(Cl)ccc12 (stereo not given) [glafenine] | – | inactive: -0.689 | –
COc1cc2c(cc1OC)CN(CCc1ccc(NC(=O)c3cccc(/C=c4\[nH]c(=O)/c(=C/c5ccccc5)n(C)c4=O)c3)cc1)CC2 | inactive: -2.12 | inactive: -1.44 | inactive: 2.64
CN(C)/N=N/c1ccc(C(=O)O)cc1 | inactive: 2.01 | inactive: -0.134 | inactive: -0.598
COc1ccc(-c2nc(-c3cc(C(F)(F)F)cc(C(F)(F)F)c3)n(Cc3ccc(C(N)=O)cc3)c2-c2ccc(OC)cc2)cc1 [apoptozole] | inactive: -0.878 | inactive: 0.0105 | inactive: -0.162
OCC(O)C(O)C(O)CO (stereo not given) [Xylitol] | inactive: -1.23 | inactive: -1.82 | inactive: -1.62
C[C@](N)(Cc1ccc(O)c(O)c1)C(=O)O [Methyldopa] | inactive: -0.377 | inactive: -1.19 | inactive: -0.898
CC1(C)OC[C@H]([C@@H](CS(=O)(=O)c2ccc(Oc3ccc(OC(F)(F)F)cc3)cc2)N(O)C=O)O1 | inactive: -0.846 | inactive: -1.18 | inactive: 0.112

Structure (SMILES) | TEAD-luciferase reporter activity (compound concentration: 200 nM) | TEAD-luciferase reporter activity (compound concentration: 2 uM) | TEAD-luciferase reporter activity (compound concentration: 10 uM)
CC(CCc1ccc(C(N)=O)cc1)N(C[C@H](O)c1ccccc1)C[C@H](O)c1ccccc1 (stereo not given in full) | inactive: 1.06 | inactive: -0.477 | inactive: 0.511
CNC(=O)[C@H](Cc1ccccc1)NC(=O)[C@H](CC(C)C)[C@H](CSc1cccs1)C(=O)NO [Batimastat] | inactive: -0.305 | inactive: -0.0898 | inactive: -0.854
COC(=O)[C@H](C/C=C/c1ccc(N(C)c2ncccn2)cc1)NC(=O)c1ccccc1Cl | inactive: -0.818 | inactive: 0.12 | inactive: 0.89
Cc1c(CCCC(=O)O)cc(O)c(O)c1C | inactive: -0.659 | inactive: 1.69 | inactive: -0.786
CCCCN(CCCC)C(=O)CN1C[C@H](c2ccc3c(c2)OCO3)[C@@H](C(=O)O)[C@@H]1c1ccc(OC)cc1 [atrasentan] | inactive: -2.61 | inactive: 2.6 | inactive: 0.216
C[C@@H]1C[C@H]2[C@@H]3C[C@H](F)C4=CC(=O)C=CC4(C)[C@@]3(F)[C@@H](O)CC2(C)[C@@]1(O)C(=O)SC1CCOC1=O (stereo not given in full) [Zoticasone] | inactive: -1.52 | inactive: 2.39 | inactive: 3.22
CN(C)C[C@]1(c2ccc(Cl)c(Cl)c2)CC[C@](C)(O)CC1 | inactive: -1.36 | inactive: -1.93 | inactive: 0.0184
NC/C(=C/F)CCc1ccc(F)cc1 [Mofegiline hydrochloride] | inactive: -0.653 | inactive: -1.15 | inactive: 0.394
COc1ccc(CN2CCC(N3CCCNC3=O)CC2)cc1 | inactive: -0.926 | – | inactive: 3.96
CCOC(=O)N1CCN(C(=O)[C@H](Cc2cccc(C(=N)N)c2)NS(=O)(=O)c2c(C(C)C)cc(C(C)C)cc2C(C)C)CC1 | inactive: -0.0838 | inactive: -0.867 | inactive: 0.321
N[C@H](C(=O)O)c1ccc(O)cc1 [Oxfenicine] | inactive: -0.0724 | inactive: 0.361 | inactive: -0.0993
CC(=C/C(=O)O)/C(=C/c1ccc2cc3c(cc2c1)C(C)(C)CCC3(C)C)c1cccc(C(=O)O)c1 | inactive: 4.11 | inactive: -0.702 | inactive: -1.86
CCOc1nnc(-c2cc(C(C)(C)C)c(O)c(C(C)(C)C)c2)s1 | inactive: 1.6 | inactive: 0.00982 | inactive: 0.669
O=C(O)[C@H](Oc1cccc(C(F)(F)F)c1)c1ccc(Cl)cc1 | inactive: 0.28 | inactive: -0.957 | inactive: 1.47
CCn1ncc2c(NC3CCOCC3)c(-c3nnc(Cc4sc(C)nc4C)o3)cnc21 | inactive: -0.394 | inactive: 0.83 | inactive: -0.916
CC(=O)Oc1c(C)c(C)c2c(c1C)CC[C@@](C)(CCC[C@H](C)CCC[C@H](C)CCCC(C)C)O2 [Vitamin E acetate] | inactive: -0.65 | inactive: -0.133 | inactive: 3.24
COC(=O)N/N=C/c1c[n+]([O-])c2ccccc2[n+]1[O-] [Carbadox] | inactive: -0.246 | – | inactive: 1.64
COc1cc2c(cc1OC)C(C)N(Cc1ccc(C)cc1)CC2 (stereo not given) | inactive: -0.308 | inactive: -0.819 | inactive: -0.725
CCN(CC)CCO/N=C(\c1ccco1)c1ccc(OC)c(Cl)c1Cl [Diclofurime] | inactive: -0.36 | inactive: 0.224 | inactive: -1.22

Eleven entries from above, set out differently.

| Structure (SMILES) | TEAD-luciferase reporter activity (compound concentration: 200 nM) | TEAD-luciferase reporter activity (compound concentration: 2 uM) | TEAD-luciferase reporter activity (compound concentration: 10 uM) |
| --- | --- | --- | --- |
| C[C@](N)(Cc1ccc(O)c(O)c1)C(=O)O [Methyldopa] | inactive: -0.377 | inactive: -1.19 | inactive: -0.898 |
| CC1(C)OC[C@H]([C@@H](CS(=O)(=O)c2ccc(Oc3ccc(OC(F)(F)F)cc3)cc2)N(O)C=O)O1 | inactive: -0.846 | inactive: -1.18 | inactive: 0.112 |
| CC(CCc1ccc(C(N)=O)cc1)N(C[C@H](O)c1ccccc1)C[C@H](O)c1ccccc1 (stereo not given in full) | inactive: 1.06 | inactive: -0.477 | inactive: 0.511 |
| CNC(=O)[C@H](Cc1ccccc1)NC(=O)[C@H](CC(C)C)[C@H](CSc1cccs1)C(=O)NO [Batimastat] | inactive: -0.305 | inactive: -0.0898 | inactive: -0.854 |
| COC(=O)[C@H](C/C=C/c1ccc(N(C)c2ncccn2)cc1)NC(=O)c1ccccc1Cl | inactive: -0.818 | inactive: 0.12 | inactive: 0.89 |
| Cc1c(CCCC(=O)O)cc(O)c(O)c1C | inactive: -0.659 | inactive: 1.69 | inactive: -0.786 |
| CCCCN(CCCC)C(=O)CN1C[C@H](c2ccc3c(c2)OCO3)[C@@H](C(=O)O)[C@@H]1c1ccc(OC)cc1 [atrasentan] | inactive: -2.61 | inactive: 2.6 | inactive: 0.216 |
| C[C@@H]1C[C@H]2[C@@H]3C[C@H](F)C4=CC(=O)C=CC4(C)[C@@]3(F)[C@@H](O)CC2(C)[C@@]1(O)C(=O)SC1CCOC1=O (stereo not given in full) [Zoticasone] | inactive: -1.52 | inactive: 2.39 | inactive: 3.22 |
| CN(C)C[C@]1(c2ccc(Cl)c(Cl)c2)CC[C@](C)(O)CC1 | inactive: -1.36 | inactive: -1.93 | inactive: 0.0184 |
| NC/C(=C/F)CCc1ccc(F)cc1 [Mofegiline hydrochloride] | inactive: -0.653 | inactive: -1.15 | inactive: 0.394 |
| COc1ccc(CN2CCC(N3CCCNC3=O)CC2)cc1 | inactive: -0.926 | – | inactive: 3.96 |

Next results follow.

Structure (SMILES) | TEAD-luciferase reporter activity (compound concentration: 200 nM) | TEAD-luciferase reporter activity (compound concentration: 2 uM) | TEAD-luciferase reporter activity (compound concentration: 10 uM)
CN(CCCN1C(=O)CSC1c1cc(C(C)(C)C)c(O)c(C(C)(C)C)c1)CCOc1ccc2c(c1)OCO2 (stereo not given) | inactive: -0.589 | inactive: -1.33 | inactive: 1.02
COC(=O)C[C@](O)(CCCC(C)(C)O)C(=O)O[C@@H]1C(OC)=C[C@]23CCCN2CCc2cc4c(cc2[C@H]13)OCO4 | inactive: 2.19 | – | inactive: -0.594
COC(=O)C[C@](O)(CCCC(C)(C)O)C(=O)O[C@@H]1C(OC)=C[C@]23CCCN2CCc2cc4c(cc2[C@H]13)OCO4 [Homoharringtonine] | – | inactive: -3.7 | –
CCCCCCC(=O)OCCN1CCN(CCCN2c3ccccc3Sc3ccc(C(F)(F)F)cc32)CC1 | inactive: -0.818 | inactive: 0.727 | inactive: -0.697
CCOC(=O)[C@@H](N)CSC(=O)NC | inactive: -0.0377 | inactive: -0.283 | inactive: 0.236
COc1ccc(C2Cc3c(cccc3C(F)(F)F)N(CC3CCCN3)C(=O)C2OC(C)=O)cc1 (stereo not given) | inactive: 0.525 | inactive: 0.364 | inactive: -0.439
Cc1ncccc1-c1cnc(NCc2c(F)ccc3c2CCO3)n2cnnc12 [EED inhibitor-1] | inactive: -0.665 | inactive: 0.239 | inactive: -0.179
O=C(O)c1c[nH]c(=O)[nH]c1=O [Orazamide orotate] | inactive: -0.964 | inactive: -1.66 | inactive: -0.528
CN(C)CC#CC=C1c2ccccc2C=Cc2ccccc21 | inactive: -0.455 | inactive: -0.295 | inactive: -1.48
O=C(O)c1cccc2c1Nc1cc(C(F)(F)F)ccc1S2 | inactive: 1.47 | inactive: 1.65 | inactive: -0.132
C[C@@H]1CN(CCCn2c3ccccc3c3ccccc32)C[C@H](C)N1 [Rimcazole hydrochloride] | – | inactive: -0.692 | –
C[C@@H]1CN(CCCn2c3ccccc3c3ccccc32)C[C@H](C)N1 [Rimcazole] | inactive: -1.54 | – | inactive: 2.53
CC[N+](=C1C=C/C(=C(\c2cc(ccc2S(=O)(=O)[O-])S(=O)(=O)O)/c2ccc(cc2)N(CC)CC)/C=C1)CC | inactive: 2.7 | inactive: -1.19 | inactive: -0.378
Clc1ccc(N2CCN(C/C=C/c3ccccc3)CC2)nn1 [lorcinadol] | inactive: -1.24 | inactive: -2.29 | inactive: 0.932
CCN(CC)C(C)CN1c2ccccc2Sc2ccccc21 (stereo not given) [Ethopropazine hydrochloride] | inactive: -0.0954 | – | active: 9.98
CCN(CC)C(C)CN1c2ccccc2Sc2ccccc21 (stereo not given) | – | inactive: 1.99 | –
O=C1NCCCN1CN1CCOCC1 | inactive: -1.55 | inactive: -1.63 | inactive: -1.27
CC(C)C[C@H](NC(=O)[C@@H](Cc1ccccc1)NC(=O)[C@@H](Cc1ccc(O)cc1)NC(=O)CNC(=O)[C@@H](CCCNC(=N)N)NC(=O)[C@H](CO)NC(=O)[C@H](CCC(N)=O)NC(=O)[C@@H](CO)NC(=O)[C@@H](C)NC(=O)[C@@H](Cc1ccccc1)NC(=O)[C@H]1CCCN1C(=O)[C@H](CO)NC(=O)[C@H](CCC(N)=O)NC(=O)[C@@H](Cc1ccccc1)NC(=O)[C@@H](CCC(=O)O)NC(=O)[C@@H](CCC(=O)O)NC(=O)[C@H](CC(=O)O)NC(=O)[C@@H](NC(=O)[C@H](CCCNC(=N)N)NC(=O)[C@H](N)Cc1ccccc1)C(C)C)C(=O)N[C@@H](Cc1ccccc1)C(=O)N[C@@H](CCCNC(=N)N)C(=O)N1CCC[C@@H]1C(=O)N[C@H](CCCNC(=N)N)C(=O)N[C@H](CC(N)=O)C(N)=O | inactive: 0.609 | inactive: -0.401 | inactive: 4.31
